These are yes or no findings as the source states them, for the method shown. Binding seen in cells or lysates may run through a third protein. Some binding calls cover weakened binding; strength is not graded here. Where a sequence is shown, tags or fusion partners need not be part of it. Each block holds one molecule with its values, some of them ahead of it.
What was measured:
[1] = biological target: T1, GST-RCB (Arabidopsis thaliana) (UniProt F4JLC1); experiment: pull-down; GST-RCB on glutathione sepharose beads; in vitro translated PHY holoproteins (with phycocyanobilin) in the Pr form; E buffer with 0.1% IGEPAL CA-630, 2 h; only the target purified
T1 sequence: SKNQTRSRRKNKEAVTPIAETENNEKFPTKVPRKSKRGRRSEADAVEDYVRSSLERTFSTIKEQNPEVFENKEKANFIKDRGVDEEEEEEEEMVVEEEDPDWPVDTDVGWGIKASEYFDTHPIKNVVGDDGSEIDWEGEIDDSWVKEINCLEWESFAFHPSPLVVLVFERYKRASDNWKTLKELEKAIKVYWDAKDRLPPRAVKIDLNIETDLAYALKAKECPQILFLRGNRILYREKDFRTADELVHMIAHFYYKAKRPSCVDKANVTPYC

By UniProt entry, the sequences of proteins in these tests, tags left out.
UniProt P14713: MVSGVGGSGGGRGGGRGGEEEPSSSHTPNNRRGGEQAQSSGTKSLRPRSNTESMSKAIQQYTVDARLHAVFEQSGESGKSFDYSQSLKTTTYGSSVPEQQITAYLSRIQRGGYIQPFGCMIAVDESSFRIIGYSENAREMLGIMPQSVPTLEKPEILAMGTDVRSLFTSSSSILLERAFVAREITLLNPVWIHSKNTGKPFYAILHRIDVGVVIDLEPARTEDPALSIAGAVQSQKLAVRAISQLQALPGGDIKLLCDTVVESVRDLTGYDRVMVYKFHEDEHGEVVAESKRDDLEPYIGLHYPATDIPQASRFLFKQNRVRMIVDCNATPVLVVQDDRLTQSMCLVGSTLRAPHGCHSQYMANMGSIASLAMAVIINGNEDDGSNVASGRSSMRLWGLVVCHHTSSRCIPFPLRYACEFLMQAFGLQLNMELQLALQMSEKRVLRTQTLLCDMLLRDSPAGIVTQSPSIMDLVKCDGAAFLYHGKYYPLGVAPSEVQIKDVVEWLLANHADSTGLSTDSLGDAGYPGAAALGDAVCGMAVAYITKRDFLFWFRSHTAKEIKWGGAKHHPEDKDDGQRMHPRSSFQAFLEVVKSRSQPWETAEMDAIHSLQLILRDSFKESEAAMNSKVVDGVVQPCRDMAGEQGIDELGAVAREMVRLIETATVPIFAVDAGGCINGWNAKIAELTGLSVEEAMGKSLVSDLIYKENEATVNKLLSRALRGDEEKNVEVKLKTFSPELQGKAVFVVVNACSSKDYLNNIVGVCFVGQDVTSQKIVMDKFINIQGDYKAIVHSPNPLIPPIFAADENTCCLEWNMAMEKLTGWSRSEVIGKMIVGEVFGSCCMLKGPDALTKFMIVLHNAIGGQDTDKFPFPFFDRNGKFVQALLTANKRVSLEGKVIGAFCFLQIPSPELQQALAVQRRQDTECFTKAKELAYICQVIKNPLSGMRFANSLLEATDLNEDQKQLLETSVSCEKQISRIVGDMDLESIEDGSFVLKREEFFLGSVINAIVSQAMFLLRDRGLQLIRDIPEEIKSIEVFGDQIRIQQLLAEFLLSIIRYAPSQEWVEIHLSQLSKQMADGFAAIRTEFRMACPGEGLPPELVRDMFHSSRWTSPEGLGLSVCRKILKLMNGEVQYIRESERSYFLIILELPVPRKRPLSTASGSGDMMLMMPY

[2] = biological target: T1, GST-RCB (Arabidopsis thaliana); experiment: pull-down; GST-RCB on glutathione sepharose beads; in vitro translated PHY holoproteins (with phycocyanobilin) in the Pfr form; E buffer with 0.1% IGEPAL CA-630, 2 h; only the target purified
[3] = biological target: T2, RCB-HA-His (REGULATOR OF CHLOROPLAST BIOGENESIS with HA and His tags) (Arabidopsis thaliana) (UniProt F4JLC1); experiment: co-IP; anti-HA affinity matrix on cleared extract of 4-d-old RCB-HA-His/rcb-10 seedlings grown in 0.5 μmol m^-2 s^-1 FR light (PHYA) or 10 μmol m^-2 s^-1 R light (PHYB); Co-IP buffer 50 mM Tris-HCl pH 7.5, 100 mM NaCl, 0.1% IGEPAL CA-630; 4 h at 4 °C; blots with anti-PHYA or anti-PHYB
T2 sequence: T1 sequence

[4] = biological target: T1, GST-RCB (Arabidopsis thaliana); experiment: pull-down; GST-RCB on glutathione sepharose beads; in vitro translated PHY apoproteins (no chromophore) in E buffer with 0.1% IGEPAL CA-630, 2 h; blots with anti-PHYA or anti-PHYB; only the target purified

binding [4]: binds
Molecule: PHYB-HA apoprotein (from UniProt P14713 1-1172)

binding [4]: binds
B2: PHYA-HA apoprotein (protein, UniProt P14712 1-1122)
chain: MSGSRPTQSSEGSRRSRHSARIIAQTTVDAKLHADFEESGSSFDYSTSVRVTGPVVENQPPRSDKVTTTYLHHIQKGKLIQPFGCLLALDEKTFKVIAYSENASELLTMASHAVPSVGEHPVLGIGTDIRSLFTAPSASALQKALGFGDVSLLNPILVHCRTSAKPFYAIIHRVTGSIIIDFEPVKPYEVPMTAAGALQSYKLAAKAITRLQSLPSGSMERLCDTMVQEVFELTGYDRVMAYKFHEDDHGEVVSEVTKPGLEPYLGLHYPATDIPQAARFLFMKNKVRMIVDCNAKHARVLQDEKLSFDLTLCGSTLRAPHSCHLQYMANMDSIASLVMAVVVNEEDGEGDAPDATTQPQKRKRLWGLVVCHNTTPRFVPFPLRYACEFLAQVFAIHVNKEVELDNQMVEKNILRTQTLLCDMLMRDAPLGIVSQSPNIMDLVKCDGAALLYKDKIWKLGTTPSEFHLQEIASWLCEYHMDSTGLSTDSLHDAGFPRALSLGDSVCGMAAVRISSKDMIFWFRSHTAGEVRWGGAKHDPDDRDDARRMHPRSSFKAFLEVVKTRSLPWKDYEMDAIHSLQLILRNAFKDSETTDVNTKVIYSKLNDLKIDGIQELEAVTSEMVRLIETATVPILAVDSDGLVNGWNTKIAELTGLSVDEAIGKHFLTLVEDSSVEIVKRMLENALEGTEEQNVQFEIKTHLSRADAGPISLVVNACASRDLHENVVGVCFVAHDLTGQKTVMDKFTRIEGDYKAIIQNPNPLIPPIFGTDEFGWCTEWNPAMSKLTGLKREEVIDKMLLGEVFGTQKSCCRLKNQEAFVNLGIVLNNAVTSQDPEKVSFAFFTRGGKYVECLLCVSKKLDREGVVTGVFCFLQLASHELQQALHVQRLAERTAVKRLKALAYIKRQIRNPLSGIMFTRKMIEGTELGPEQRRILQTSALCQKQLSKILDDSDLESIIEGCLDLEMKEFTLNEVLTASTSQVMMKSNGKSVRITNETGEEVMSDTLYGDSIRLQQVLADFMLMAVNFTPSGGQLTVSASLRKDQLGRSVHLANLEIRLTHTGAGIPEFLLNQMFGTEEDVSEEGLSLMVSRKLVKLMNGDVQYLRQAGKSSFIITAELAAANK

More lines, now with the values behind:

Molecule: PHYB-HA holoprotein (with phycocyanobilin) (from UniProt P14713 1-1172)
binding [1]: binds | binding [2]: binds

Molecule: PHYB (phytochrome B), endogenous (from UniProt P14713 1-1172)
binding [3]: binds

B1: PHYA (phytochrome A), endogenous (protein, UniProt P14712 1-1122)
chain: B2 chain
binding [3]: binds

B3: PHYA-HA holoprotein (with phycocyanobilin) (protein, UniProt P14712 1-1122)
chain: B2 chain
modifications: phycocyanobilin (PCB) chromophore; residue not stated
binding [1]: binds | binding [2]: binds
